# Source: patent US11408886B2, “Method of screening for novel therapeutic targets to develop therapeutic agents for colon cancer and prognostic biomarkers for colon cancer treatment screened using the same” (KOREA INSTITUTE OF SCIENCE AND TECHNOLOGY, priority 2018, dated 2022)
# Some of these results come from one statement about several compounds together. For at least one compound, name, drawing or mass did not settle the structure.
# Test system: colon cancer cell line HCT-116
# Test: Nano-LC/high-resolution MS identification of FAK-binding proteins with increased expression after treatment with FAK signaling substances
# Assay type: cell-based, human
# Details: HCT-116, compared with cells not treated with the FAK signaling substance (FIGS. 13A to 13D)
structure (smiles),measurement,value
"CCCCCCCCCCCCCC(=O)O[C@@H]1[C@@H](C)[C@@]2(O)[C@@H](C=C(CO)C[C@]3(O)C(=O)C(C)=C[C@@H]23)[C@@H]2C(C)(C)[C@]12OC(C)=O [PMA, phorbol 12-myristate 13-acetate]","expression of FAK-binding proteins (SYNE1, TJP3, ELAVL4, ARHGEF10L, DSP detected reproducibly)",≥ 10 fold
